The other results are listed elsewhere or left out.
Key:
Experiment in all cases: log2 fold change, soluble protein after heating vs DMSO (PISA); higher = thermal stabilisation; K562 cells, 10 uM, 30 min; active = over 0.2 and 3.5 SD of the protein, either way, in both replicates (recomputed)
filanesib = compound: CON(C)C(=O)N1N=C(c2cc(F)ccc2F)S[C@@]1(CCCN)c1ccccc1 [filanesib]
Summary of the method: (§1)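 K562 cells at 2×10^6 cells/mL were exposed to 10 μM compound for 30 min, then aliquots were heated for 3 min across 48°C-58°C, pooled, and extracted in PBS containing 0.5% NP-40 at 4°C. The supernatant after 21,000xg for 90 min was taken as soluble protein and measured by TMTpro 16plex LC-MS/MS with channel sums equalised. Thermal stability is reported relative to control samples, with values from duplicates. Fold changes are given on a log2 scale.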

The chains behind the UniProt entries cited, without tags or fusion partners. Where a name states a change or a piece, a line headed by the entry shows the natural chain unless it says otherwise.
UniProt A2RUB6: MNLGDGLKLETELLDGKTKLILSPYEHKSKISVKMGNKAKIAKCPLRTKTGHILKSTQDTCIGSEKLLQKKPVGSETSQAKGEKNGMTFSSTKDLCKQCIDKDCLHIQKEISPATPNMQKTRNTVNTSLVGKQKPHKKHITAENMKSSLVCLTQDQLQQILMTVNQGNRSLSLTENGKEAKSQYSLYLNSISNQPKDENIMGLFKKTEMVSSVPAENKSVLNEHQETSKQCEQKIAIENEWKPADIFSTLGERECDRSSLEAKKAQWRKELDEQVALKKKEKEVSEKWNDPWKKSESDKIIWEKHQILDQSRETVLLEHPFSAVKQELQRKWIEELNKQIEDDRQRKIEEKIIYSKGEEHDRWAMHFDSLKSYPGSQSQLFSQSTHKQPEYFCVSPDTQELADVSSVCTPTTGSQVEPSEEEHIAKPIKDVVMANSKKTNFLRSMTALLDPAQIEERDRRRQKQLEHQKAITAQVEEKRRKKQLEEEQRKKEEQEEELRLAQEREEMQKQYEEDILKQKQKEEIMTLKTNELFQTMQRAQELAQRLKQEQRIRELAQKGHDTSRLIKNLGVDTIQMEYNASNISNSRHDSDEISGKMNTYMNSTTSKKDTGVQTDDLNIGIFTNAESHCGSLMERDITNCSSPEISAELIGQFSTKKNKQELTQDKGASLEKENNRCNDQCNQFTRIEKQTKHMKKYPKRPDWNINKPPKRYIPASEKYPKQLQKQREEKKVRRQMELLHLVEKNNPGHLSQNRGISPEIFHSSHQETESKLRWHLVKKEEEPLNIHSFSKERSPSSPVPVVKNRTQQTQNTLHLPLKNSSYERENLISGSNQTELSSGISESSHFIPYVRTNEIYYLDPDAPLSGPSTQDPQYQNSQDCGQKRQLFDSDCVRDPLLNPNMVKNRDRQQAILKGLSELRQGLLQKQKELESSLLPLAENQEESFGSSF
UniProt P15529: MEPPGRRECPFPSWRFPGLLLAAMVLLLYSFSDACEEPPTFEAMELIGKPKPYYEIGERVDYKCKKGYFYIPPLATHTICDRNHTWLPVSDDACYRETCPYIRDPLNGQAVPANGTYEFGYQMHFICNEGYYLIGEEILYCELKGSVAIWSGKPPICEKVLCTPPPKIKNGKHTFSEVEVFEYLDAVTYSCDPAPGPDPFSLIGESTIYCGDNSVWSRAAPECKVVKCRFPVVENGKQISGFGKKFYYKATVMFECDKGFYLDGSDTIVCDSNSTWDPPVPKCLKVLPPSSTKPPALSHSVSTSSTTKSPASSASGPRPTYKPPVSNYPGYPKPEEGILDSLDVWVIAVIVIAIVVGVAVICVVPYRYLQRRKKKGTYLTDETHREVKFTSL
UniProt Q9UK58: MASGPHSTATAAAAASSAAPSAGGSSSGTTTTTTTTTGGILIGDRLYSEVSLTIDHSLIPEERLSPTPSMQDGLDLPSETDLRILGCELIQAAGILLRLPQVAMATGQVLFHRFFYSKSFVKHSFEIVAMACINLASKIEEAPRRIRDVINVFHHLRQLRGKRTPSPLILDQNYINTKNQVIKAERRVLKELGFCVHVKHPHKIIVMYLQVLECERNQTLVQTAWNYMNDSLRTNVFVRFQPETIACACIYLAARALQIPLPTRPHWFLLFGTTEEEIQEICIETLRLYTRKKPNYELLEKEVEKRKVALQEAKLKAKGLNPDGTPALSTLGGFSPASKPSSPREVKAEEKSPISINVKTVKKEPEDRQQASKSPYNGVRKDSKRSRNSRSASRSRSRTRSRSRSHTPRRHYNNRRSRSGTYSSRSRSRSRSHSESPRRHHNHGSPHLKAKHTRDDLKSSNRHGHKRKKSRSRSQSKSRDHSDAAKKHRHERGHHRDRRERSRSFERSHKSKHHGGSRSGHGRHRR
UniProt P16070: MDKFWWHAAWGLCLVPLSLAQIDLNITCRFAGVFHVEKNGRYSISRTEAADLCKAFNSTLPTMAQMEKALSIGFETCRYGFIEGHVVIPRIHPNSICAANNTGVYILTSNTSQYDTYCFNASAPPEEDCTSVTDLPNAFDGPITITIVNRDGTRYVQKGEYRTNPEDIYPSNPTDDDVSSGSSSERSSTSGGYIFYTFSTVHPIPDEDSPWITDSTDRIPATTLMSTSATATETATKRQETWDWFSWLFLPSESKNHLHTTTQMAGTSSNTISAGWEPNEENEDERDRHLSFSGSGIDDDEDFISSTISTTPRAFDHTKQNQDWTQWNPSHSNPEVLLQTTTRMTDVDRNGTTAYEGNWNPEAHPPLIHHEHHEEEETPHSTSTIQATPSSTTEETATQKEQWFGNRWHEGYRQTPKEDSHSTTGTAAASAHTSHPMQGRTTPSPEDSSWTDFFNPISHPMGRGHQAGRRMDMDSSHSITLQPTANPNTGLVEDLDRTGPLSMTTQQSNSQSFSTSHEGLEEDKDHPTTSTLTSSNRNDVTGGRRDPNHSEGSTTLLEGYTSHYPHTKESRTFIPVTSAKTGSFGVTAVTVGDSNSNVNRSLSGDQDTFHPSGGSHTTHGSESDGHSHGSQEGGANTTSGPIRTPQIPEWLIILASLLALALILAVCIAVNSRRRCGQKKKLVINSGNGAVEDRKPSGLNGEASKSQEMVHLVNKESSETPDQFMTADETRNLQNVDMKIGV
UniProt P20138, whole entry, looked up: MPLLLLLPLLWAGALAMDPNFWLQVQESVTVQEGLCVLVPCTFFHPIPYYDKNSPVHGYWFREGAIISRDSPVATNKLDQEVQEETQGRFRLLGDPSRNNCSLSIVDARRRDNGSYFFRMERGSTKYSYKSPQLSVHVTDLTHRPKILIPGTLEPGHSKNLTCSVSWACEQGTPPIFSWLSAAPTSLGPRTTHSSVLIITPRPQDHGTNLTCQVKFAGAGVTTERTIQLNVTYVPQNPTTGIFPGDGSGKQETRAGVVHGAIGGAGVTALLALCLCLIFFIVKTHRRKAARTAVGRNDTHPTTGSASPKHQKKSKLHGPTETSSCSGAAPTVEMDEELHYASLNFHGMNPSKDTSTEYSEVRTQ
UniProt Q8N9Z2: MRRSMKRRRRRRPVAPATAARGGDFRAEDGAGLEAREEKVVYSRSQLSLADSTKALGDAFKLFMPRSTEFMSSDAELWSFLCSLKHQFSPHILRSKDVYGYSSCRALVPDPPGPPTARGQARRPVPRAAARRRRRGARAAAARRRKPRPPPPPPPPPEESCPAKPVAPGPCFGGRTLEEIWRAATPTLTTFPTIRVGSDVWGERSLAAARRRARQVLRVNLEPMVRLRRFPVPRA
UniProt Q15834: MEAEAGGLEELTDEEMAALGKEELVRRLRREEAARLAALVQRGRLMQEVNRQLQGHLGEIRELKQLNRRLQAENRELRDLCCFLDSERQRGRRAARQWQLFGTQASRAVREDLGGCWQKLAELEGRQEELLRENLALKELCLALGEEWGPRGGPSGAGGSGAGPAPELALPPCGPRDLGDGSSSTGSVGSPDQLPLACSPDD
UniProt P34810: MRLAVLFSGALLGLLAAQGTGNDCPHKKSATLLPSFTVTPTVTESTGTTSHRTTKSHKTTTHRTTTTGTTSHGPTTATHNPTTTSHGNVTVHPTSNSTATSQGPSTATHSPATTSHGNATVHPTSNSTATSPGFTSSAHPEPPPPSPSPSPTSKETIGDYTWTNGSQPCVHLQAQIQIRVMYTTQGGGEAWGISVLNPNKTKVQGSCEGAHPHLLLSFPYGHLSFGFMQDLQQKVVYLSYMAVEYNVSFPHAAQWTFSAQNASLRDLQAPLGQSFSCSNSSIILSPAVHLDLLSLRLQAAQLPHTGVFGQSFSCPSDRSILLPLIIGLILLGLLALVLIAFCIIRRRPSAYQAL
UniProt P27701: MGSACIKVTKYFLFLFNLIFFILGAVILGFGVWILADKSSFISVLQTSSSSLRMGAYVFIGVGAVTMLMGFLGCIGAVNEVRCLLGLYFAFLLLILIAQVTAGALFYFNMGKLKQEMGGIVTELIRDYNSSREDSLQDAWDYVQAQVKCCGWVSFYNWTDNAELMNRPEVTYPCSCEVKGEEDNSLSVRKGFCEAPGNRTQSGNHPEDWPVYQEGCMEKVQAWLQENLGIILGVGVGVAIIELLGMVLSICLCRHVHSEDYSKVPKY
UniProt O95273: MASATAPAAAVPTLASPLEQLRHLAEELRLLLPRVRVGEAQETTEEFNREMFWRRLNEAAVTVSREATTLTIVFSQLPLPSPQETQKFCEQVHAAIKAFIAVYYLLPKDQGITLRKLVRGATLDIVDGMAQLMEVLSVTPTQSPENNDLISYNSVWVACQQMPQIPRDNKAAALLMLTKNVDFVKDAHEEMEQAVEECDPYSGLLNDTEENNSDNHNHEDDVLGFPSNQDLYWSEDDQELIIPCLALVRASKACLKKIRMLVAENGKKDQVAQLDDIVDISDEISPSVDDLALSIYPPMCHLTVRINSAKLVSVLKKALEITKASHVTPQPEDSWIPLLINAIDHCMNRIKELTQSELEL
UniProt Q9BUN5: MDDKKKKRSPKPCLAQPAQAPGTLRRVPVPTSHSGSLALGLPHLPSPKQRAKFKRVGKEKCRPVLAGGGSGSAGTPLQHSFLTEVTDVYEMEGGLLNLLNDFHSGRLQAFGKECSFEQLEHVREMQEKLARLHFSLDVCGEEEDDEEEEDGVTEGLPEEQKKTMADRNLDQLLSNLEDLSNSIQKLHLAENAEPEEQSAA
UniProt P30279, whole entry, looked up: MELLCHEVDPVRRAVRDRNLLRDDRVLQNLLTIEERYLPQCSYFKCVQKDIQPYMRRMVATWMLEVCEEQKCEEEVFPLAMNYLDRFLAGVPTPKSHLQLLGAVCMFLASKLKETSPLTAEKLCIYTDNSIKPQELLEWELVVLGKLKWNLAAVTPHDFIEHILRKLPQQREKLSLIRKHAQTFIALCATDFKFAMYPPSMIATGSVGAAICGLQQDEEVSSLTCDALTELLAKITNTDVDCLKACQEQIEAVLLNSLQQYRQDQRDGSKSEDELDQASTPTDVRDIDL
UniProt Q9UIB8: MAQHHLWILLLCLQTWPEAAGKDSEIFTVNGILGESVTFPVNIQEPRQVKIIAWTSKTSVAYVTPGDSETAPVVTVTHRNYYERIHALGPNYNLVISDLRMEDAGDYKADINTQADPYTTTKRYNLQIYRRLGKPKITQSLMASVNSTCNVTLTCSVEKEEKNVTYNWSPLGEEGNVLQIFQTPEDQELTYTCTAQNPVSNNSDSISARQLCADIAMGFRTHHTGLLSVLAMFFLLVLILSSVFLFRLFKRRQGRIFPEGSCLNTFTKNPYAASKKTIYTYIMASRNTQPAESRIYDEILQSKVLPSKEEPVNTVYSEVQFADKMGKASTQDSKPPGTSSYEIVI
UniProt Q04900: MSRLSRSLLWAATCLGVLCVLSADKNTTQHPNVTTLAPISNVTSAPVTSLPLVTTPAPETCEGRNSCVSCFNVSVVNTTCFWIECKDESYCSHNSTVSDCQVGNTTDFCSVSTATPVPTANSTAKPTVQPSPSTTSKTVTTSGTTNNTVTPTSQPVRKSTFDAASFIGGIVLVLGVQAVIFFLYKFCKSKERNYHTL
UniProt P30307: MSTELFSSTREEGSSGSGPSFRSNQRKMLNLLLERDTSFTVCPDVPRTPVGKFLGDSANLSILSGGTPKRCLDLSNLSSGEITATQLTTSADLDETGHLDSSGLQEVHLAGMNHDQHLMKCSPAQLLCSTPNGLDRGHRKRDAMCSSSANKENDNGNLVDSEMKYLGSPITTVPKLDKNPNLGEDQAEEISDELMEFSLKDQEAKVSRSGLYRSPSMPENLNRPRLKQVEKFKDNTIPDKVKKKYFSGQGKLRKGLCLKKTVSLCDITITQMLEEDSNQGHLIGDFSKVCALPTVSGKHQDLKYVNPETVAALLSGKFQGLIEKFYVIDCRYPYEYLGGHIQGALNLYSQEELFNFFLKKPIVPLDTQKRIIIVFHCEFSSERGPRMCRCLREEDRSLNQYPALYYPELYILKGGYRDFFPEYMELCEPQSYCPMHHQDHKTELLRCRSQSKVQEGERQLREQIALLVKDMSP
UniProt P11049: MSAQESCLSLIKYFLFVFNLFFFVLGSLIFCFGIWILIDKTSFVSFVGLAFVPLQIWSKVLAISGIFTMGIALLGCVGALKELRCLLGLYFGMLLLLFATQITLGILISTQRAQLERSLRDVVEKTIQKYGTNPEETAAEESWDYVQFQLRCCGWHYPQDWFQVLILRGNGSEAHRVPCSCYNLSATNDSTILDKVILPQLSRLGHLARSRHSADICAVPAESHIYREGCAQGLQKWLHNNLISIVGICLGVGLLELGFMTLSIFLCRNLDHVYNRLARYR
UniProt P24385, whole entry, looked up: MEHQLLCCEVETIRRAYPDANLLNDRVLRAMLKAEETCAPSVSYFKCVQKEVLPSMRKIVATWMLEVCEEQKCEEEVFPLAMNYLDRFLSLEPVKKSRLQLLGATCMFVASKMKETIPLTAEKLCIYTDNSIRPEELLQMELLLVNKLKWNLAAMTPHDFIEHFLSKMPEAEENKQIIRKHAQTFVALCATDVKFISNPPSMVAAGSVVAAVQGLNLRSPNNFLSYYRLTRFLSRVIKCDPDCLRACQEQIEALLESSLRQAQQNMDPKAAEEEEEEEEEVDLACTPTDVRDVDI

idasanutlin = compound: COc1cc(C(=O)O)ccc1NC(=O)[C@@H]1N[C@@H](CC(C)(C)C)[C@](C#N)(c2ccc(Cl)cc2F)[C@H]1c1cccc(Cl)c1F [idasanutlin]
Summary of the method: as §1

alisertib = compound: COc1cc(Nc2ncc3c(n2)-c2ccc(Cl)cc2C(c2c(F)cccc2OC)=NC3)ccc1C(=O)O [alisertib]
Summary of the method: as §1

[1] = compound: COc1cc2nc(-c3cc(F)ccc3O)nc(N[C@@H]3CNC[C@H]3C(C)(C)O)c2cc1OC
Summary of the method: as §1

gefitinib = compound: COc1cc2ncnc(Nc3ccc(F)c(Cl)c3)c2cc1OCCCN1CCOCC1 [gefitinib]
Summary of the method: as §1

[2] = compound: COc1cccc2cc(-c3nc([C@H]4CC[C@H](C(=O)O)CC4)n4ncnc(N)c34)[nH]c12
Summary of the method: as §1

lapatinib = compound: CS(=O)(=O)CCNCc1ccc(-c2ccc3ncnc(Nc4ccc(OCc5cccc(F)c5)c(Cl)c4)c3c2)o1 [lapatinib]
Summary of the method: as §1

pictilisib = compound: CS(=O)(=O)N1CCN(Cc2cc3nc(-c4cccc5[nH]ncc45)nc(N4CCOCC4)c3s2)CC1 [pictilisib]
Summary of the method: as §1

[3] = compound: CS(=O)(=O)c1ccc(-c2cnc(N)c(C(=O)Nc3ccccc3)n2)cc1
Summary of the method: as §1

[4] = compound: C[C@@H]1COCCN1C2=NC(=NC(=C2)C3(CC3)S(=O)(=O)C)C4=C5C=CNC5=CC=C4
Summary of the method: as §1

gandotinib = compound: Cc1cc(Nc2cc(CN3CCOCC3)c3nc(C)c(Cc4ccc(Cl)cc4F)n3n2)n[nH]1 [gandotinib]
Summary of the method: as §1

[5] = compound: Cc1cc(SCc2sc(-c3ccc(C(F)(F)F)cc3)nc2C)ccc1OCC(=O)O
Summary of the method: as §1

ispinesib = compound: Cc1ccc(C(=O)N(CCCN)[C@@H](c2nc3cc(Cl)ccc3c(=O)n2Cc2ccccc2)C(C)C)cc1 [ispinesib]
Summary of the method: as §1

duvelisib = compound: C[C@H](Nc1ncnc2nc[nH]c12)c1cc2cccc(Cl)c2c(=O)n1-c1ccccc1 [duvelisib]
Summary of the method: as §1

zotarolimus = compound: CO[C@H]1C[C@@H]2CC[C@@H](C)[C@@](O)(O2)C(=O)C(=O)N2CCCC[C@H]2C(=O)O[C@H]([C@H](C)C[C@@H]2CC[C@H](n3cnnn3)[C@H](OC)C2)CC(=O)[C@H](C)/C=C(\C)[C@@H](O)[C@@H](OC)C(=O)[C@H](C)C[C@H](C)/C=C/C=C/C=C/1C [zotarolimus]
Summary of the method: as §1

[6] = compound: C[C@H](C1=CC=C(C=C1)C(=O)NC2=C3C=CNC3=NC=C2)N
Summary of the method: as §1

tozasertib = compound: Cc1cc(Nc2cc(N3CCN(C)CC3)nc(Sc3ccc(NC(=O)C4CC4)cc3)n2)n[nH]1 [tozasertib]
Summary of the method: as §1

Measured: log2 fold change

CCNT2 (UniProt O60583)
inactive: filanesib 0.102 | idasanutlin 0.143 | alisertib 0.039 | [1] -0.291 | gefitinib 0.163 | [2] -0.131 | lapatinib 0.085 | pictilisib 0.121 | [3] -0.226 | [4] -0.148 | gandotinib -0.065 | [5] 0.047 | ispinesib -0.147

CCDC66 (UniProt A2RUB6)
inactive: alisertib 0.097 | gefitinib -0.213 | [2] -0.065 | pictilisib 0.019 | [4] 0.026 | gandotinib -0.004

CCDC187, A0A1W2PQX5
inactive: idasanutlin -0.051 | gefitinib -0.312 | pictilisib 0.191 | [4] -0.042 | gandotinib -0.352 | ispinesib 0.274

CCDC186 (UniProt Q7Z3E2)
inactive: filanesib 0.043 | alisertib -0.073 | gefitinib -0.06 | [2] -0.241 | pictilisib 0.125 | [3] 0.002 | duvelisib 0.009 | gandotinib 0.074 | [5] -0.057

CD46 (UniProt P15529)
inactive: filanesib 0.103 | [3] -0.088 | duvelisib 0.097 | [5] -0.195

CCNL1 (UniProt Q9UK58)
inactive: alisertib 0.119 | [2] 0.167

CD44 (UniProt P16070)
inactive: filanesib 0.065 | zotarolimus 0.074 | idasanutlin -0.021 | [1] 0.143 | lapatinib -0.035 | [3] 0.065 | [6] 0.084 | duvelisib -0.049 | tozasertib -0.03 | [5] -0.02

CD33 (UniProt P20138)
inactive: filanesib 0.112 | [1] -0.159 | lapatinib 0.054 | pictilisib -0.079 | [3] -0.16 | [4] -0.023 | duvelisib 0.134 | gandotinib 0.123 | tozasertib -0.041 | [5] -0.131 | ispinesib 0.097

CCDC71L isoform 2 (UniProt Q8N9Z2)
inactive: filanesib 0.135 | zotarolimus 0.04 | [3] 0.015 | [4] 0.15 | [6] 0.003 | tozasertib 0.032

CCDC85B (UniProt Q15834)
inactive: filanesib 0.123 | zotarolimus 0.081 | idasanutlin -0.049 | alisertib 0.041 | [1] -0.064 | [2] -0.021 | lapatinib 0.172 | pictilisib -0.021 | [3] -0.239 | [6] 0.378 | duvelisib 0.164 | gandotinib -0.157 | tozasertib -0.059 | [5] 0.046

CD68 (UniProt P34810)
inactive: filanesib 0.05 | alisertib -0.126 | [2] -0.025 | [3] -0.016

CD82 (UniProt P27701)
inactive: filanesib -0.016 | alisertib -0.125 | gefitinib -0.218 | [2] 0.056 | pictilisib 0.18 | [3] -0.037 | [4] -0.136 | gandotinib 0.069 | ispinesib 0.195

Quoted at random: 2 records from the list
CD82 (UniProt P27701)
inactive: filanesib -0.016 | alisertib -0.125 | gefitinib -0.218 | [2] 0.056 | pictilisib 0.18 | [3] -0.037 | [4] -0.136 | gandotinib 0.069 | ispinesib 0.195

CCDC71L isoform 2 (UniProt Q8N9Z2)
inactive: filanesib 0.135 | zotarolimus 0.04 | [3] 0.015 | [4] 0.15 | [6] 0.003 | tozasertib 0.032

Remaining list, next part

CCNDBP1 (UniProt O95273)
inactive: filanesib 0.016 | zotarolimus -0.102 | idasanutlin 0.063 | alisertib -0.012 | [2] 0.125 | pictilisib 0.009 | [3] 0.016 | [6] 0.06 | gandotinib -0.066 | [5] 0.043 | ispinesib -0.029
active: gefitinib -0.33

CCDC28B (UniProt Q9BUN5)
inactive: filanesib 0.139 | idasanutlin 0.012 | alisertib 0.159 | [1] 0.166 | [2] 0.033 | lapatinib 0.008 | pictilisib 0.364 | [3] -0.158 | gandotinib -0.117 | tozasertib 0.023

CBX3 (UniProt B8ZZ43)
inactive: duvelisib 0.207 | [5] -0.315

CCND2 (UniProt P30279)
inactive: zotarolimus 0.002 | [6] -0.048

CD84 (UniProt Q9UIB8)
inactive: filanesib -0.009 | zotarolimus -0.194 | idasanutlin -0.082 | [3] 0.049 | [4] -0.201 | [6] -0.149 | [5] 0.056

CD164 (UniProt Q04900)
inactive: filanesib 0.192 | zotarolimus -0.202 | idasanutlin 0.125 | alisertib -0.074 | gefitinib -0.157 | [2] 0.1 | pictilisib -0.082 | [3] -0.229 | [4] -0.512 | [6] -0.189 | gandotinib -0.05 | ispinesib 0.033

CDC25C (UniProt P30307)
inactive: zotarolimus 0.025 | idasanutlin 0.093 | alisertib -0.06 | gefitinib 0.069 | [2] 0.136 | [4] 0.091 | [6] 0.071 | duvelisib -0.045 | tozasertib -0.056 | [5] -0.049

CD37 (UniProt P11049)
inactive: idasanutlin 0.023 | [1] 0.059 | gefitinib 0.089 | lapatinib -0.056 | pictilisib 0.084 | duvelisib 0.058 | gandotinib -0.114 | tozasertib -0.093 | [5] 0.075

CDC37 (UniProt K7EKQ2)
inactive: filanesib -0.077 | [3] -0.182 | [4] 0.07

CCND1 (UniProt P24385)
inactive: filanesib 0.079 | [3] 0.146 | ispinesib -0.124
